Laboratory results taken from PubChem BioAssay AID743255 (National Center for Advancing Translational Sciences (NCATS), 2014).
The campaign covered roughly 390,000 compounds. About 910 (0.23%) were called active. Inconclusive results, whose numbers are uncertain, are shown with a selection of clear calls. Calls come from the whole dose curve; as a rule, active = well fitted inhibition curve with a large enough effect; inconclusive = small, poorly fitted or top-dose-only effect; inactive = no such curve, though single readings can be large or run the other way. Potencies of inconclusive entries are doubtful fits and often do not repeat.

Amino acid sequences for entries named in this document (tags omitted). A change or cut given only in a name is not applied to a line headed by its entry.
UniProt O94782: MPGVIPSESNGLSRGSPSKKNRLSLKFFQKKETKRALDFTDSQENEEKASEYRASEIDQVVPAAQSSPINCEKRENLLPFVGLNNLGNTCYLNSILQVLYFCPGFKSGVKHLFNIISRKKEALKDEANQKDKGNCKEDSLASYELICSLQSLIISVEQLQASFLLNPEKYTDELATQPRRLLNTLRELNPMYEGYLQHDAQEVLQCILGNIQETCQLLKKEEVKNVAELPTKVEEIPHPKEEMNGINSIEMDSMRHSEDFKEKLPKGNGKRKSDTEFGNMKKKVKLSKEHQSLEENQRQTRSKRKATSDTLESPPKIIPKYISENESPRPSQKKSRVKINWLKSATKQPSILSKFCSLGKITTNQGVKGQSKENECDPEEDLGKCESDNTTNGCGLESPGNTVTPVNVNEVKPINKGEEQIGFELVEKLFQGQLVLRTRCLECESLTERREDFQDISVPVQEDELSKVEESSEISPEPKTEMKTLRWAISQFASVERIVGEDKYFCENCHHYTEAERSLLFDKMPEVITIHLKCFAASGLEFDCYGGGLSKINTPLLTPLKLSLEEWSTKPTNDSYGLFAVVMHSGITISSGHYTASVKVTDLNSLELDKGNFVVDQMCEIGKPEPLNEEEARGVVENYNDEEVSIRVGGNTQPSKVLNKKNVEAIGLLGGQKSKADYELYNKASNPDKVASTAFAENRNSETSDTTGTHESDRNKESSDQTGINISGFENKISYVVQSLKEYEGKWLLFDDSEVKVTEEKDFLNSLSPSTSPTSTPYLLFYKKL

biological target: Ubiquitin carboxyl-terminal hydrolase 1 (Homo sapiens) (UniProt O94782); assay: Inhibitors of USP1/UAF1: Primary Screen; settings: recombinant USP1/UAF1, Ub-Rhodamine cleavage fluorescence; activity change, negative = inhibition: at 57.1 µM (top of the series); note: nearly all actives have a fitted effect of over 60% in size
Method in brief: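 In this screen, compounds sit with the deubiquitinase complex (1nM) for 15 min at room temperature before Ub-Rho is added at 150nM final. Fluorescence rise is then followed for 6 reads every 60 seconds.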
% is set by controls: 0 for no effect and ±100 for the full control effect; potency is the fitted concentration of half-maximal effect.

SMILES | Potency | activity change, negative = inhibition
CCCCCCCCCCCCCCCC[N+](C)(C)CCl | inconclusive: 35.5 µM [inhibitor, partial curve, poor fit] | 
CCCCCCCCNS(=O)(=O)CCNCc1ccc(OC)cc1 |  | inactive: -21.3%
CC(=O)c1ccccc1OCC(O)CNC1CCCC1 (stereo unspecified) | inconclusive: 3.55 µM [inhibitor, full curve, poor fit] | 
CCn1c(SCC(=O)NCC2CCCO2)nc2c(c1=O)SC(C)C2 (stereo unspecified) | inconclusive: 39.8 µM [inhibitor, partial curve, poor fit] | 
N#C/C(=C\C1=C(N2CCOCC2)C(=C\c2ccccc2)/CC1)C(=O)Nc1ccccc1F | inconclusive: 14.1 µM [inhibitor, partial curve] | 
CCOC(=O)c1cc(OC(=O)c2ccccc2C)n(-c2ccccc2)n1 |  | inactive: -25.4%
CCC1C/C(=C\c2cccnc2)C(=O)/C(=C/c2cccnc2)C1 (stereo unspecified) | inconclusive: 39.8 µM [inhibitor, partial curve] | 
Cc1ccccc1N(CC(=O)NC1CCCC1)C(=O)C1(C)CC(=O)N=C2C=CC(Cl)=CN21 (stereo unspecified) | inconclusive: 44.7 µM [inhibitor, partial curve, poor fit] | 
COc1cc(C(=O)c2nccc3cc(OC)c(OC)cc23)c([N+](=O)[O-])cc1OC | inconclusive: 0.794 µM [inhibitor, full curve] | 
CCOC(=O)c1c(C)[nH]c(C)c1S(=O)(=O)N1CCN(c2cccc(C(F)(F)F)c2)CC1 | inconclusive: 31.6 µM [inhibitor, single point] | 
Cc1ccc(-n2cccc2/C=C2\C(=N)N3N=C(c4ccco4)SC3=NC2=O)cc1 |  | inactive: -11.3%
CC1=CCC(C(=O)O)C(C(=O)Nc2ccc(-c3nc4ccc(C)cc4s3)cc2)C1 (stereo unspecified) | inconclusive: 44.7 µM [inhibitor, partial curve] | 
O=C(CC1C(=O)N(c2ccc(Cl)cc2)C(=S)N1CCc1ccncc1)Nc1ccc(F)cc1 (stereo unspecified) |  | inactive: -14.7%
CCOC(=O)c1c(C)oc2c1C(=O)c1ccccc1C2=O | inconclusive: 5.62 µM [inhibitor, partial curve] | 
Cc1ccc(S(=O)(=O)N2CCC(C(=O)Nc3ccc(C)c(Cl)c3)CC2)cc1 | inconclusive: 0.355 µM [inhibitor, full curve] | 
c1ccc2c(c1)OCC(c1nnc3sc(-c4ccc5c(c4)OCO5)nn13)O2 (stereo unspecified) |  | inactive: -9.08%
Cc1c(Cl)cccc1NC(=O)Nc1ccc2snnc2c1 |  | inactive: -35.2%
CCCC(=O)Nc1ccc2nc(SCC(=O)Nc3ccc(N4CCOCC4)c(Cl)c3)sc2c1 |  | inactive: -5.93%
O=C(COC(=O)c1ncc(Cl)c(Cl)c1Cl)NC1CCCCCC1 |  | inactive: 0.956%
COc1cc(OC)c2c(-c3cccc(-c4ccc(OC(F)(F)F)cc4)c3)cc(=O)oc2c1 | inconclusive: 39.8 µM [inhibitor, partial curve] | 
CCN(CC)CCSc1nnc2c3cc(F)ccc3n(CC)c2n1 |  | inactive: -9.11%
N#C/C(=C\c1cc(Br)c(O)c(Br)c1)c1nc2ccccc2c(=O)[nH]1 | active: 28.2 µM | 

SMILES | Potency | activity change, negative = inhibition
O=C1C(=O)c2c(ccc3ccccc23)-c2ccccc21 | active: 3.98 µM | 
O=C(c1ccccc1)[C@@H]1[C@@H](C(=O)c2ccc(F)cc2)[C@@]2(C(=O)Nc3ccccc32)[C@H]2c3ccccc3C=CN12 | active: 28.2 µM | 
COC(=O)CCC(=O)OC1(C)C(=O)C=C2C=C(C3CC3)N(Cc3ccccc3)C=C2C1=O (stereo unspecified) | inconclusive: 44.7 µM [inhibitor, partial curve, poor fit] | 
O=C(Nc1ccc(N2CCN(Cc3ccccc3F)CC2)cc1)c1ccccc1[N+](=O)[O-] | inconclusive: 56.2 µM [inhibitor, partial curve, poor fit] | 
CCc1ccc(N(CC)C(=O)Cn2cnc3sc(C)c(S(=O)(=O)N4CCN(c5ncccn5)CC4)c3c2=O)cc1 | inconclusive: 12.6 µM [inhibitor, partial curve, poor fit] | 
COC(=O)c1c(NC(=O)c2ccc(S(=O)(=O)N(C)C3CCCCC3)cc2)sc2c1CCN(C)C2 | inconclusive: 44.7 µM [inhibitor, partial curve] | 
COc1cc(C(C(=O)NC2CCCCC2)N(C(=O)Cc2c[nH]c3ccccc23)c2ccccc2C)cc(OC)c1OC (stereo unspecified) | inconclusive: 50.1 µM [inhibitor, partial curve, poor fit] | 
O=C(/C=C/c1cccc2ccccc12)NCCC1=CCCCC1 |  | inactive: -16.8%
N/C(=N\OC(=O)c1cc(Br)ccc1Cl)c1cccnc1 |  | inactive: -18.1%
COc1ccc(-c2c(C)c3ccc(O)c(CN4CCCC4)c3oc2=O)cc1 | inconclusive: 50.1 µM [inhibitor, partial curve, poor fit] | 
COc1ccccc1CNCc1ccc2c(c1)OCO2 | inconclusive: 0.251 µM [inhibitor, full curve, poor fit] | 
Cc1cc(C)cc(Oc2cc(NC(=O)c3cn(C)nc3C)cc([N+](=O)[O-])c2)c1 |  | inactive: 1.58%
Cc1cc(NC(=O)c2cnc3c(-c4ccccc4)c(C)nn3c2C)ccc1Br |  | inactive: -19%
COCCCNc1oc(-c2ccccc2F)nc1C#N | inconclusive: 8.91 µM [inhibitor, full curve, poor fit] | 
COc1ccc(OCC(=O)NCC(c2ccc(OC)cc2)N2CCOCC2)cc1 (stereo unspecified) |  | inactive: -21.5%
Cc1ccccc1C(=O)N1CCC(C(=O)NN2C(=O)NC3(CCC(C)CC3)C2=O)CC1 (stereo unspecified) |  | inactive: -7.03%
COc1ccc(S(=O)(=O)Nc2cccc(C(C)=O)c2)cc1Br | inconclusive: 39.8 µM [inhibitor, partial curve, poor fit] | 
O=C(O)c1ccc2c(c1Nc1ccccc1)C(=O)c1ccccc1C2=O | inconclusive: 44.7 µM [inhibitor, partial curve] | 
Cc1cccc(C(=O)NNc2ncnc3c2cnn3-c2ccc(C)c(Cl)c2)c1 | inconclusive: 50.1 µM [inhibitor, partial curve, poor fit] | 
CN(CC1CCCN(CCc2ccccc2F)C1)C(=O)c1cc2ccccc2o1 (stereo unspecified) | inconclusive: 0.251 µM [inhibitor, full curve, poor fit] | 
COc1ccc(OCc2cc(C(=O)N(C)C3CCOCC3)no2)c2ccccc12 | inconclusive: 35.5 µM [inhibitor, partial curve, poor fit] | 
O=C(CCNS(=O)(=O)c1ccc2nsnc2c1)N1CCN(c2ccncc2)CC1 |  | inactive: -7.77%

4 records picked at random from the list so far:
SMILES | Potency | activity change, negative = inhibition
COc1ccc(-c2c(C)c3ccc(O)c(CN4CCCC4)c3oc2=O)cc1 | inconclusive: 50.1 µM [inhibitor, partial curve, poor fit] | 
Cc1cc(NC(=O)c2cnc3c(-c4ccccc4)c(C)nn3c2C)ccc1Br |  | inactive: -19%
Cc1ccc(-n2cccc2/C=C2\C(=N)N3N=C(c4ccco4)SC3=NC2=O)cc1 |  | inactive: -11.3%
COc1ccccc1CNCc1ccc2c(c1)OCO2 | inconclusive: 0.251 µM [inhibitor, full curve, poor fit] | 

(more compounds)

SMILES | Potency | activity change, negative = inhibition
CC(CCc1ccccc1)NC(=O)c1ccccc1C(=O)O (stereo unspecified) | inconclusive: 50.1 µM [inhibitor, partial curve, poor fit] | 
CC1CC(C)CN(C(=O)c2ccc(CSc3nc4ccncc4[nH]3)cc2)C1 (stereo unspecified) | inconclusive: 5.62 µM [inhibitor, partial curve] | 
Clc1ccccc1CSc1nc(NCCc2ccccc2)c2ccccc2n1 | inconclusive: 35.5 µM [inhibitor, partial curve] | 
Fc1cccc(Nc2cc(-n3cccn3)ncn2)c1 |  | inactive: -10.2%
CCOc1ccccc1CNS(=O)(=O)c1cc(-c2onc(C)c2C)ccc1OC | inconclusive: 141 µM [inhibitor, partial curve, poor fit] | 
Cn1nc(C(=O)NCc2ccccc2)c2c1-c1ccccc1S(=O)(=O)C2 | inconclusive: 7.94 µM [inhibitor, full curve] | 
COc1ccccc1CNC(=O)CCc1c(C)nn(-c2ccc(N3CCCCC3)nn2)c1C |  | inactive: 7.28%
CC(N=Cc1cc([N+](=O)[O-])ccc1O)c1ccccc1 (stereo unspecified) |  | inactive: -18.6%
COCCn1nnnc1C(c1cc2cc(OC)ccc2[nH]c1=O)N1CCC(Cc2ccccc2)CC1 (stereo unspecified) | inconclusive: 35.5 µM [inhibitor, partial curve] | 
Cc1ccc(Cl)cc1N1CCN(C(=O)CCS(=O)(=O)c2ccc3c(c2)oc(=O)n3C)CC1 | inconclusive: 0.708 µM [inhibitor, full curve, poor fit] | 
O=C(Nc1cc(Cl)ccc1Cl)c1noc2c1CCCC2 | inconclusive: 4.47 µM [inhibitor, partial curve] | 
CC(=O)N(/N=C1\Sc2ccccc2C1=O)c1cccc(C)c1 | inconclusive: 28.2 µM [inhibitor, partial curve] | 
CCOc1ccc(/C=N/N(C)c2ccccc2)cc1OC | inconclusive: 31.6 µM [inhibitor, partial curve] | 
N#Cc1nc(-c2ccccc2F)oc1NCc1ccccc1 | inconclusive: 5.01 µM [inhibitor, partial curve, poor fit] | 
O=C(NC1CCCC1)C(c1ccncc1)N(C(=O)Cc1cccs1)c1cccc(F)c1 (stereo unspecified) | inconclusive: 0.794 µM [inhibitor, full curve] | 
CSc1ccc(/C=C/C(=O)c2ccc(NC(=O)C(C)C)cc2)cc1 | inconclusive: 25.1 µM [inhibitor, partial curve] | 
Cc1ccc2oc(-c3ccc(C)c(NC(=O)c4ccc(-c5ccccc5[N+](=O)[O-])o4)c3)nc2c1 | inconclusive: 4470 µM [inhibitor, partial curve, poor fit] | 
Cc1cccc(OCC(=O)N/N=C/c2ccc(N(C)C)cc2)c1 |  | inactive: -22.1%
C/C=C(/C)C(=O)Nc1cccc(C2=NOC3(C2)C[C@@H](C(N)=O)N(C(=O)CC(c2ccccc2)c2ccccc2)C3)c1 (stereo partly specified) | inconclusive: 35.5 µM [inhibitor, partial curve, poor fit] | 
CCC1=NN(S(=O)(=O)c2ccc(C)cc2)C(O)(C(F)(F)F)C1 (stereo unspecified) | inconclusive: 50.1 µM [inhibitor, partial curve, poor fit] | 
Oc1ccc(-c2nc3ccc4ccccc4c3c3c2CCC3)cc1O |  | inactive: -15.2%
O=C1C(=Cc2cccn2-c2ccc(O)cc2)C(=O)c2ccccc21 | inconclusive: 2.51 µM [inhibitor, full curve, poor fit] | 
